Data reported in PMC6193355.
No constants are given. Whether binding was seen depends on the method and setting. In cells and extracts the contact can be indirect. Some binding calls cover weakened binding; strength is not graded here.

Sequences of proteins named here, by UniProt entry; tags and fusion partners are left off.
UniProt P17676: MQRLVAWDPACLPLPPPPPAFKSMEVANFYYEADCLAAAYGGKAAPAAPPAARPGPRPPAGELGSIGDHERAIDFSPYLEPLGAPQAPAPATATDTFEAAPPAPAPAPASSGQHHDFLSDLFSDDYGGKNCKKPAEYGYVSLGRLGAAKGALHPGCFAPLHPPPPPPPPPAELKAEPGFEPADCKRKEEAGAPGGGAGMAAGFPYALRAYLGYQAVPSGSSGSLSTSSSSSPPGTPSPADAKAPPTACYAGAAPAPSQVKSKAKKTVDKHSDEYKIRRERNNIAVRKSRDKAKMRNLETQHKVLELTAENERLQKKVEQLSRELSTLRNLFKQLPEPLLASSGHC
UniProt Q9UER7: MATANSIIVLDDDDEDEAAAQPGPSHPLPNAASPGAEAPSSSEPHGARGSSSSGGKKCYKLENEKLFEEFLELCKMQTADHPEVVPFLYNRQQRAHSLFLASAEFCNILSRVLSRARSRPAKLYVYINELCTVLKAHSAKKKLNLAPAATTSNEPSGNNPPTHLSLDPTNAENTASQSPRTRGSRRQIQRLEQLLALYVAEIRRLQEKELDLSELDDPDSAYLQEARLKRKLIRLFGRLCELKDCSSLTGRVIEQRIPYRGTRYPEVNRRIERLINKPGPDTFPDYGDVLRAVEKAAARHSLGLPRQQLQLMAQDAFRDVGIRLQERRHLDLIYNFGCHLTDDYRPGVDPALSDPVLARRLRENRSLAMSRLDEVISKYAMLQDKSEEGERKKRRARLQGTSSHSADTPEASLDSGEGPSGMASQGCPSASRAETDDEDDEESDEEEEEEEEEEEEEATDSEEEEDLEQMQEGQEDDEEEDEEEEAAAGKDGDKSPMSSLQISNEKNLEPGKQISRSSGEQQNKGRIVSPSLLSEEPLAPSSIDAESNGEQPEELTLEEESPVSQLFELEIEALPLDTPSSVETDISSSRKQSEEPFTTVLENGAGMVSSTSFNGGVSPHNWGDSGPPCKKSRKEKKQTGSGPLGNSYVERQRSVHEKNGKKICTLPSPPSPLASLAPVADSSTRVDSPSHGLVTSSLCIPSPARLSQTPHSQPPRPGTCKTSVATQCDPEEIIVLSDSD

Target: CCAAT/enhancer-binding protein-β (HA-CEBP-β) (UniProt P17676)
Experiment: co-IP; HA-CEBP-β transfected into DAXX-overexpressing ascites cells; lysed in NP-40 buffer; immunoprecipitated with anti-HA affinity beads for 4 h at 4 °C, washed in NTEN buffer; western blot with antibodies to DAXX and CEBP-β

death-domain-associated protein (DAXX), GFP-DAXX (from UniProt Q9UER7 1-740)
binding: binds
